Test results reported in patent US20080187512A1, “Treatment for spinal muscular atrophy” (Academia Sinica, priority 2007, published 2008).
Some results were stated once for a whole list of compounds, not compound by compound.

Tested on: SMN2
Test: SMN2 splicing pattern, semi-quantitative RT-PCR in SMN2-NSC34 cells
Format: cell-based, mouse
Conditions: SMA-like MEFs and SMN2-NSC34 cells (FIG. 1)
Method: Cell culture and chemical/dsRNA treatment. Mouse embryonic fibroblasts (MEFs) were prepared using the standard protocol. Briefly, E13.5 day embryo was isolated; the uterine deciduas were cut away, and the yolk sac was removed. The embryo was then scraped out to remove non-fibroblastic tissue, and the head severed for genotyping. Embryo body was minced in 0.25% Trypsin-EDTA and incubated for 30 min. It was then added to MEF culture media, and the cell suspension spun for ˜5 min at 1,000 rpm in the tissue culture centrifuge to pellet cells. The supernatant was aspirated off and the cell pellet immediately resuspended in 10 mL of fresh MEF culture media. The MEFs were allowed to reach confluency so the cells could be passaged for further experiments. […]
Semi-quantitative PCR/RT-PCR. […] The gel images were digitally captured with a CCD camera and analyzed with the Alphalmager™. […] Relative total SMN2 transcript levels were determined from Stat5A1*6 transfected SMN2-NSC34 cells in a minimum of three independent experiments. Differences in ratios were determined to be significant by an independent two-tailed t-test, with *, P<0.05, **, P<0.005, ***, p<0.001.

CC[C@@]1(O)C[C@H](O[C@H]2C[C@H](N(C)C)[C@H](O[C@H]3C[C@H](O)[C@H](O[C@H]4CCC(=O)[C@H](C)O4)[C@H](C)O3)[C@H](C)O2)c2c(cc3c(c2O)C(=O)c2c(O)cccc2C3=O)[C@H]1C(=O)OC [Aclarubicin]
treatment time after which the full length SMN2 expression level was enhanced: 4 to 6 h
